Source: US20140336109A1, “MODULATION OF GHRELIN LEVELS AND GHRELIN/UNACYLATED GHRELIN RATIO USING UNACYLATED GHRELIN” (Alize Pharma SAS, priority 2011, published 2014)
At least one peptide structure holds a part that was inferred or is arguable (an end, a ring closure or a residue).

Tests used:
Type in all cases: in vivo, human
[1] = tested on: AG serum levels; test: Overnight (15 h) UAG infusion in T2DM subjects: serum AG levels by MSD ELISA
[2] = tested on: T2DM subjects; test: Post-prandial glucose and insulin after standard breakfast meal (SBM) during overnight UAG infusion (iPro continuous glucose monitoring, glucokinase assay); conditions: for post-prandial glucose area under the curve (iPro): after SBM, placebo 1618
[3] = tested on: T2DM subjects; test: Hyperinsulinemic-euglycemic clamp study with 2.5 hr UAG infusion

With `CC(C)C[C@H](NC(=O)[C@H](CCCCN)NC(=O)[C@H](C)NC(=O)[C@@H]1CCCN1C(=O)[C@@H]1CCCN1C(=O)[C@H](CCCCN)NC(=O)[C@H](CCCCN)NC(=O)[C@H](CO)NC(=O)[C@H](CCC(=O)O)NC(=O)[C@H](CCCCN)NC(=O)[C@H](CCCNC(=N)N)NC(=O)[C@H](CCC(N)=O)NC(=O)[C@H](CCC(N)=O)NC(=O)[C@@H](NC(=O)[C@H](CCCNC(=N)N)NC(=O)[C@H](CCC(N)=O)NC(=O)[C@H](Cc1c[nH]cn1)NC(=O)[C@H](CCC(=O)O)NC(=O)[C@@H]1CCCN1C(=O)[C@H](CO)NC(=O)[C@H](CC(C)C)NC(=O)[C@H](Cc1ccccc1)NC(=O)[C@H](CO)NC(=O)[C@H](CO)NC(=O)CN)C(C)C)C(=O)N[C@@H](CCC(N)=O)C(=O)N1CCC[C@H]1C(=O)N[C@@H](CCCNC(=N)N)C(=O)O` [UAG] the “AG levels (mean±SD)” value ([1]; before initiation of SBM, 3 mcg/kg·hr UAG overnight infusion) was 3.0 ± 6.7 pg/mL, the “AG levels (mean±SD)” value ([1]; before initiation of SBM, 10 mcg/kg·hr UAG overnight infusion) was 1.4 ± 3.2 pg/mL and the “AG levels (mean±SD)” value ([1]; following SBM, 3 mcg/kg·hr UAG overnight infusion) was 0.8 ± 1.8 pg/mL. The “AG levels (mean±SD)” value ([1]; following SBM, 10 mcg/kg·hr UAG overnight infusion) was 0.8 ± 1.8 pg/mL, the “area under the curve of glucose change from pre-SBM baseline” value ([2]; 3 and 10 mcg UAG infusions compared to placebo) was “decreased” and the “post-prandial glucose area under the curve (iPro)” value ([2]; 3 mcg UAG infusion) was 1601 mmol/3 hrs. For the same molecule, the “post-prandial glucose area under the curve (iPro)” value ([2]; 10 mcg UAG infusion) was 1540 mmol/3 hrs, the “plasma glucose peak after SBM” value ([2]; UAG infusion vs placebo, T2DM subjects) was “a decrease in plasma glucose peak after SBM” and the “serum insulin levels during infusion” value ([2]; low and high dose of UAG infusions, data not shown) was “No significant change”. The “post-prandial glucose levels (iPro continuous glucose monitoring)” value ([2]; overnight infusion of UAG, T2DM subjects) was “significantly depressed post-prandial glucose levels”, the “M-index change from baseline, increase in UAG vs. placebo group” value ([3]; 10 μg/kg/h iv infusion for 2.5 hrs, euglycemic insulin clamp, p=0.02) was 36% and the “plasma AG levels after shortened infusion” value ([3]; 2.5 hour-long UAG infusion, T2DM subjects) was “sufficient to decrease plasma AG levels”.
